Test results: paper PMC6127294, “Jungle Express is a versatile repressor system for tight transcriptional control” (Nature Communications, 2018)
A weaker result is weaker than the reference pair of the same experiment. Tags and fusion partners may be left off the protein sequences shown.

Target: T1, EilR-Y03A Y3A (UniProt A0A346M331)
T1 sequence (looked up): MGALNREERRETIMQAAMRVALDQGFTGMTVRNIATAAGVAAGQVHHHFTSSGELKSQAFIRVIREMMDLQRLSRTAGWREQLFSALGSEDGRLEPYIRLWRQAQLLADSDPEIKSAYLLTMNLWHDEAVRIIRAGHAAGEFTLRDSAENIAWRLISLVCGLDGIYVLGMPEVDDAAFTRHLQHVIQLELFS
Assay: EMSA
Settings: complex appears from 0.5:1 EilR:DNA, 10 mM MgCl2; Operator EMSA: 30 mM Tris pH 7.7, 100 mM NaCl, 25 mM arginine, 25 mM glutamine, 5 mM MgCl2, RT 1.5 h; recombinant protein; residues 1-192

## AAAAAGTTGGACACGTGTCCAACTTTCC (double strand) [eilOc 28-mer duplex]
  binding result: binds more weakly
